Assay results published in paper PMC5412559.
No constants are given. Whether binding was seen depends on the method and setting. In cells and extracts the contact can be indirect. Some results given as binding are weak or reduced against the parent protein; the word gives no strength. Sequences can lack the tags named with a protein.

T1: Toll-6-3×Flag (native Toll-6) (Drosophila melanogaster) (UniProt Q9VUN0)
T1 sequence: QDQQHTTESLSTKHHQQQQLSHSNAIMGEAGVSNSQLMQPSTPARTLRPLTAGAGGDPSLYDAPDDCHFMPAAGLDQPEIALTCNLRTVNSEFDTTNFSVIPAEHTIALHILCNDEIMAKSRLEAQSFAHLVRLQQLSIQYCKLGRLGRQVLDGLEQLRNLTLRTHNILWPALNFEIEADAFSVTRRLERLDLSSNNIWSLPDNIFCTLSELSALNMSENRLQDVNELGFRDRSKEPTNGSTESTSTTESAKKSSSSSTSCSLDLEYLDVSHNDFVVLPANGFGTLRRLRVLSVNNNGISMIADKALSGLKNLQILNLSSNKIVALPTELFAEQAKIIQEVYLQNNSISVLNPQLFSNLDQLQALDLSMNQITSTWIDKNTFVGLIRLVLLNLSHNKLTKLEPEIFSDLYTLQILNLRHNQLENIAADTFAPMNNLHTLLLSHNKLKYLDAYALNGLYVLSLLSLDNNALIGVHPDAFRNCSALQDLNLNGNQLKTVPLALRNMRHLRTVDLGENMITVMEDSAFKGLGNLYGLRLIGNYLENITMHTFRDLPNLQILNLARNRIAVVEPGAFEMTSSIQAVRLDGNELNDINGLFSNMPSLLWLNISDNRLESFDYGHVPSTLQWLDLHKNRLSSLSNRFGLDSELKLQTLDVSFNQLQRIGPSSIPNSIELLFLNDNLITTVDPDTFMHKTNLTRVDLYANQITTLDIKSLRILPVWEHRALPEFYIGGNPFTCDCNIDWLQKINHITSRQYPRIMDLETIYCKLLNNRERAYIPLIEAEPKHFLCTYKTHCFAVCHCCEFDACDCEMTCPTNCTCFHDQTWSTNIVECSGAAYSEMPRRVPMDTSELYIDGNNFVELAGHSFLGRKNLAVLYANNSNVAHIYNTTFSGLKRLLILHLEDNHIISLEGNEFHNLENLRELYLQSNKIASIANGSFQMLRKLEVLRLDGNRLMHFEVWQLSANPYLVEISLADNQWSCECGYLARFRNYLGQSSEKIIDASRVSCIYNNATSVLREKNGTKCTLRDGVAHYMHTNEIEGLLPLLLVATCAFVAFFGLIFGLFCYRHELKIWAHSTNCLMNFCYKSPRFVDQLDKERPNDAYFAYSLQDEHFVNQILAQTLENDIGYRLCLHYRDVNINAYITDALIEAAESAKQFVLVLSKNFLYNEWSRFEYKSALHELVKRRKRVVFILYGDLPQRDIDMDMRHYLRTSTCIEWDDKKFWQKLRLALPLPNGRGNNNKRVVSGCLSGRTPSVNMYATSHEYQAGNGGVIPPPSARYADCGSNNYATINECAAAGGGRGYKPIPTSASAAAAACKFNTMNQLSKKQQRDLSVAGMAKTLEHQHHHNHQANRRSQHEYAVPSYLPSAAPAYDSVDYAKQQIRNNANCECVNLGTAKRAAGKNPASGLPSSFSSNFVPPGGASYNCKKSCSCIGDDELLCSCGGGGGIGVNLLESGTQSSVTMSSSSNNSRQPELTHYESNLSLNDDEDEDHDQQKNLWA

T2: Toll-7-3×Flag (native Toll-7) (Drosophila melanogaster) (UniProt Q7KIN0)
T2 sequence: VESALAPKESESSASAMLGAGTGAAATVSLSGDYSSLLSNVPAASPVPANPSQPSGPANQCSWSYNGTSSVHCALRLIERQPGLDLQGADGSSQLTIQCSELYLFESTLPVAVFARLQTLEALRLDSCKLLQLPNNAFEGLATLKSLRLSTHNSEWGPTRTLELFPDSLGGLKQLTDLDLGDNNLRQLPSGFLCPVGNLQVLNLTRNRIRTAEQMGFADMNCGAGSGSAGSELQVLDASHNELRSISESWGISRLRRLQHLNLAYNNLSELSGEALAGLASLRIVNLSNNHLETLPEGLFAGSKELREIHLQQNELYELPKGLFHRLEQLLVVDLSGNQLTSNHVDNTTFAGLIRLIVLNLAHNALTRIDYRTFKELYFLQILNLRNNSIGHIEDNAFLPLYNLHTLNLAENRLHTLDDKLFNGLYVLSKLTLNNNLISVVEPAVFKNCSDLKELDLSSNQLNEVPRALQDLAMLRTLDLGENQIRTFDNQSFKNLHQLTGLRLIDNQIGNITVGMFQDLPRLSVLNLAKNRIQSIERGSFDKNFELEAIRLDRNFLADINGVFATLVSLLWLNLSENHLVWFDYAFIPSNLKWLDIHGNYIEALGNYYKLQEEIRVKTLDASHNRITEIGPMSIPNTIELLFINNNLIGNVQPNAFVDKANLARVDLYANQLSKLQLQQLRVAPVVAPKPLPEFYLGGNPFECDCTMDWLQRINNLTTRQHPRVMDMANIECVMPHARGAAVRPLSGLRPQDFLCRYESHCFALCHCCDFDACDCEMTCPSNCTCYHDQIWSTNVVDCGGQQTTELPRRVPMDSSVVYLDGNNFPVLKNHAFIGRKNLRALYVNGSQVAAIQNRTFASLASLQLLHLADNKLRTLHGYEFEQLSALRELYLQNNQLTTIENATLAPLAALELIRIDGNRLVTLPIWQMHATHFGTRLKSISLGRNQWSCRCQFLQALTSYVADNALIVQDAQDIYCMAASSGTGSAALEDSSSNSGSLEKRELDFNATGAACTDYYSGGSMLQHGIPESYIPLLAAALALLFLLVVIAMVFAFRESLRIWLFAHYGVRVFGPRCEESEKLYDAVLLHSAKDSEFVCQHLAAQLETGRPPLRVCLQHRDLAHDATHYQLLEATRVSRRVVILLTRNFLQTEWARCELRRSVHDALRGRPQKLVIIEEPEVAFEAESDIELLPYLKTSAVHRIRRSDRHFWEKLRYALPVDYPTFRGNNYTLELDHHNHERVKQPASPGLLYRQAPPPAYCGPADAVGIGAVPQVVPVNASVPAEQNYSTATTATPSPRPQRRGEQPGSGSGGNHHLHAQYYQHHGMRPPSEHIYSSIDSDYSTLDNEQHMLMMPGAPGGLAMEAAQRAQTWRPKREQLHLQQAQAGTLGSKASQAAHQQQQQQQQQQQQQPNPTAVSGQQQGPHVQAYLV

T3: MyD88-V5 (Drosophila melanogaster) (UniProt Q7K105)
T3 sequence: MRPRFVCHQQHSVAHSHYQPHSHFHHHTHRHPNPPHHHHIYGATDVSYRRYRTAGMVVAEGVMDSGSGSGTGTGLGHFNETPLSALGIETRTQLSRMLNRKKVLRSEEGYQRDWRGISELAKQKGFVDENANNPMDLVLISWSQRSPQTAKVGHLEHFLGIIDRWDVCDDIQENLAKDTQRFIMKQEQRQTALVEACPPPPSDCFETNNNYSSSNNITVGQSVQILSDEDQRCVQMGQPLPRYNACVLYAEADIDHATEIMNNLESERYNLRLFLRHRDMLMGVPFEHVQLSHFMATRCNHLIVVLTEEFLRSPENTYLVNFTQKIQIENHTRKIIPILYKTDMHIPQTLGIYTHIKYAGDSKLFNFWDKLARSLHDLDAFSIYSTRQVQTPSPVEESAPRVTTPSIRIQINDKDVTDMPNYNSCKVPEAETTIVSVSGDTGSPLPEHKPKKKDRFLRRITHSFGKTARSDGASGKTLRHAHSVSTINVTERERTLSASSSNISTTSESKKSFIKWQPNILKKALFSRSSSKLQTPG


Tests used:
[1] = biological target: T1, Toll-6-3×Flag (native Toll-6) (Drosophila melanogaster); test: co-IP; S2 cells cotransfected, collected 48 h after transfection, lysed in NP-40 buffer or Flag affinity chromatography buffer; the Flag-tagged protein precipitated with anti-Flag antibody-conjugated agarose or magnetic beads; Western blot
[2] = biological target: T2, Toll-7-3×Flag (native Toll-7) (Drosophila melanogaster); test: as above
[3] = biological target: T3, MyD88-V5 (Drosophila melanogaster); test: co-IP; S2 cells cotransfected with MyD88-V5 and dsarm-3×HA; MyD88 precipitated (mouse anti-V5 with protein-A/G magnetic beads); Western blot

Row | Binder | binding [1] | binding [2] | binding [3]
1 | MyD88-V5 (protein, UniProt Q7K105 1-537) MRPRFVCHQQHSVAHSHYQPHSHFHHHTHRHPNPPHHHHIYGATDVSYRRYRTAGMVVAEGVMDSGSGSGTGTGLGHFNETPLSALGIETRTQLSRMLNRKKVLRSEEGYQRDWRGISELAKQKGFVDENANNPMDLVLISWSQRSPQTAKVGHLEHFLGIIDRWDVCDDIQENLAKDTQRFIMKQEQRQTALVEACPPPPSDCFETNNNYSSSNNITVGQSVQILSDEDQRCVQMGQPLPRYNACVLYAEADIDHATEIMNNLESERYNLRLFLRHRDMLMGVPFEHVQLSHFMATRCNHLIVVLTEEFLRSPENTYLVNFTQKIQIENHTRKIIPILYKTDMHIPQTLGIYTHIKYAGDSKLFNFWDKLARSLHDLDAFSIYSTRQVQTPSPVEESAPRVTTPSIRIQINDKDVTDMPNYNSCKVPEAETTIVSVSGDTGSPLPEHKPKKKDRFLRRITHSFGKTARSDGASGKTLRHAHSVSTINVTERERTLSASSSNISTTSESKKSFIKWQPNILKKALFSRSSSKLQTPG | binds | binds | –
2 | dSarm-3×HA (protein, UniProt Q6IDD9 1-1360) MKAAEIKRDLTNIQKSMSEINDLAKERITGGPGSISTTSASAITAPSTMSQTTTSRLAPKLTSAHPSIDDLRGLSRQDKITQLQKKIRASFENLVDHDDSNVIVTLPDDDDCPHNHFGSGLNLTHPTAAQLSASGLSGSSKTIDTIKFQEKSMKTESKTKVVTDGFSSEQATSNSAEMKRLQAGDIDYQESKGASAMRNRLEVDGVKTEENAAVIKEALSLRTGDITQQASNNVAASSITVQSENFSADKKAISQSQQSQTMTSNGIISQEKHVSSASQANYSMSHKGVSSTGSSMITSSSQMSAMNGQMLKLADLKLDDLKSLTAGSGQQEIEQTINKYSNMLTSIVSSLQEDERGGSAITVHDVGGKKSQYLEKINEVIRRAWAVPTHGHELGYSLCNSLRQSGGLDLLMKNCVKPDLQFSSAQLLEQCLTTENRKHVVDNGLDKVVNVACVCTKNSNMEHSRVGTGILEHLFKHSEGTCSDVIRLGGLDAVLFECRTSDLETLRHCASALANLSLYGGAENQEEMILRKVPMWLFPLAFHNDDNIKYYACLAIAVLVANKEIEAEVLKSGCLDLVEPFVTSHDPSAFARSNLAHAHGQSKHWLKRLVPVLSSNREEARNLAAFHFCMEAGIKREQGNTDIFREINAIEALKNVASCPNAIASKFAAQALRLIGETVPHKLSQQVPLWSVEDVQEWVKQIGFNDYIDKFNESQVDGDLLLKLNQDNLRADIGIGNGILLKRFERELQNLKRMADYSSKDTAKMHQFLSEIGTDYCTYTYAMLNAGIDKCALPHVNEDMLMTECGIHNSIHRLRILNAVKNLENSLPSSSEENMAKTLDVFVSYRRSNGSQLASLLKVHLQLRGFSVFIDVERLEAGKFDNGLLNSIRQAKNFVLVLTPDALHRCINDEDCKDWVHREIVAALNSNCNIIPIIDQQFDWPEVERLPEDMRSVAHFNGVNWIHDYQDACIDKLERFLRGEKNIDRIAAMVPGTPGSVSYQRMHSNDSDYQSGGAGAGSGAGTGGGGGGGVTGSVVDGLMVAANGSGQANHQANRYRQSPSPARQRGSTSQLSGYSRAPSKRSQILTPYRTQQAALLHKTGAGSASMQNMMPLAYLPPRRSSAAGLGHGSGSGMGSGYRSHSVDGLLDQAGSTPEQRIAAAAAKVTAGSTALTNASSTSTLQPEEEVTDAALNDSVTRRDKHTLSPPGNVQQHRKSRSLDHILSKQTLAELLPPSSELADGTQSMQNLAIPMTPQPQRRDTSSSSKSPTPERPPQPAMERVRERQSPEGVSATESEREDQPEECLRHGNQQRASASVHRGASLTSNKTSNSSLGSNFSAGGNNKTIFNRTMKKVRSLIKKP | – | – | binds
